Results on 34 molecules are retold here after the supplement of paper PMC10735217.

The test system of the experiment is HEK293A TEAD-LUC reporter. The experiment is described as follows: TEAD-luciferase reporter activity (YAP activation), robust Z score vs plate; higher = stronger YAP/TEAD activation. Particulars: 24 h. On the technique in general: Reporter assays use an easily measured gene product as a stand-in for the process of interest.

Some of the results follow. Single values are uncertain here, since repeats match poorly.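 In a drug-repurposing library screen, luminescence reads luciferase driven by eight TEAD-binding elements, stably integrated into human kidney-derived cells. Compounds scoring over five robust Z scores above the plate mean are called hits.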

Turning to `Cn1nc(NCCCOc2cccc3c2CCC3N2CCCCC2)nc1N` (stereo unspecified), the TEAD-luciferase reporter activity was inactive: -2.79 (compound concentration: 200 nM), inactive: 0.227 (compound concentration: 2 uM) and inactive: 1.91 (compound concentration: 10 uM).

Consider `CCS(=O)(=O)c1ccc(CNC(=O)c2cnc3c(c2)CN(C[C@H]2CC[C@H](C(F)(F)F)CC2)[C@H]3C(C)C)nc1`, for which the TEAD-luciferase reporter activity by setting is: (compound concentration: 200 nM) inactive: 0.531; (compound concentration: 2 uM) inactive: -0.812; (compound concentration: 10 uM) inactive: -1.27.

Regarding `COc1ccc(-n2nc(CCC(=O)N(C)O)cc2-c2ccc(Cl)cc2)cc1` [tepoxalin], the TEAD-luciferase reporter activity was inactive: -1.17 (compound concentration: 200 nM), inactive: -2.08 (compound concentration: 2 uM) and inactive: 0.715 (compound concentration: 10 uM).

As to `CCc1nc2c(C)cc(C)nc2n1Cc1ccc2nc(-c3ccccc3C(=O)O)ccc2c1`, the TEAD-luciferase reporter activity was inactive: -0.716 (compound concentration: 200 nM), inactive: -0.0607 (compound concentration: 2 uM) and inactive: -0.548 (compound concentration: 10 uM).

`COc1ccc(F)cc1-c1ccc(CN2CCC(NC(=O)c3ccccc3Cl)C2)cc1` (stereo unspecified): the TEAD-luciferase reporter activity was active: 5.14 (compound concentration: 200 nM) and inactive: 0.464 (compound concentration: 10 uM).

Take `CC(C)(C)N[C@@H]1C=CC(c2ccccc2)(c2ccccc2)C1`: the TEAD-luciferase reporter activity (compound concentration: 200 nM) was inactive: -1.89, the TEAD-luciferase reporter activity (compound concentration: 2 uM) is inactive: -1.45 and the TEAD-luciferase reporter activity (compound concentration: 10 uM) is inactive: -0.58.

Turning to `CC1CCCC(OC(=O)C[N+](C)(C)CCCCCCCCCC[N+](C)(C)CC(=O)C2CC(C)CCC2C(C)C)C1` (stereo unspecified), the TEAD-luciferase reporter activity reads like this: (compound concentration: 200 nM) inactive: -0.715; (compound concentration: 2 uM) inactive: -0.905; (compound concentration: 10 uM) inactive: 2.34.

Turning to `Cc1cc2cn([C@H]3C[C@H](O)[C@@H](CO)O3)c(=O)nc2o1`, the TEAD-luciferase reporter activity is, setting by setting: (compound concentration: 200 nM) inactive: -0.81; (compound concentration: 2 uM) inactive: -1.9; (compound concentration: 10 uM) inactive: 0.398.

With `N#Cc1ccc(NCCNCC(=O)N2CCC[C@H]2C#N)nc1`, the TEAD-luciferase reporter activity is active: 6.05 (compound concentration: 200 nM), inactive: 1.08 (compound concentration: 2 uM) and inactive: 0.752 (compound concentration: 10 uM).

With `CN(C)/C=N/c1c(I)cc(I)c(CCC(=O)O)c1I`, the TEAD-luciferase reporter activity reads like this: (compound concentration: 200 nM) inactive: -1.83; (compound concentration: 2 uM) inactive: -0.439; (compound concentration: 10 uM) inactive: -1.79.

Take `Cc1cc(F)ccc1C1CNCCN1C(=O)N(C)C(C)c1cc(C(F)(F)F)cc(C(F)(F)F)c1` (stereo unspecified): the TEAD-luciferase reporter activity runs as follows: (compound concentration: 200 nM) inactive: 0.0511; (compound concentration: 2 uM) inactive: -1.16; (compound concentration: 10 uM) inactive: 2.23.

On to `CC(=O)O[C@]1(C(C)=O)CCC2[C@@H]3C[C@H](C)C4=CC(=O)CC[C@]4(C)C3CC[C@@]21C` (stereo partly specified) [Diviseq], for which the TEAD-luciferase reporter activity (compound concentration: 200 nM) was inactive: 1.29, the TEAD-luciferase reporter activity (compound concentration: 2 uM) is inactive: 1.51 and the TEAD-luciferase reporter activity (compound concentration: 10 uM) is inactive: -0.128.

With `COc1c(C)cnc(Cn2cnc3c(Cl)nc(N)nc32)c1C`, the TEAD-luciferase reporter activity by setting is: (compound concentration: 200 nM) inactive: -0.675; (compound concentration: 2 uM) inactive: -1.31; (compound concentration: 10 uM) inactive: 0.703.

For `CS(=O)(=O)Nc1ccc2c(c1)C(=O)CC1(CCN(C3CCc4cc(C#N)ccc4C3)CC1)O2` (stereo unspecified), the TEAD-luciferase reporter activity is inactive: -0.114 (compound concentration: 200 nM), inactive: -1.07 (compound concentration: 2 uM) and inactive: -1.57 (compound concentration: 10 uM).

Regarding `CCC(C)C(=O)O[C@H]1[C@H](O)[C@H]2[C@@H](CN3C[C@@H](C)CC[C@H]3[C@@]2(C)O)[C@@H]2C[C@]34O[C@@]5(O)[C@@H](OC(=O)C(C)(O)C(C)OC(C)=O)CC[C@@]3(C)[C@@H]5C[C@@H](OC(C)=O)[C@H]4[C@@]21O` (stereo partly specified), the TEAD-luciferase reporter activity (compound concentration: 200 nM) was inactive: -0.64, the TEAD-luciferase reporter activity (compound concentration: 2 uM) is inactive: 0.872 and the TEAD-luciferase reporter activity (compound concentration: 10 uM) was inactive: -0.654.

Take `C[C@H]1[C@H](C)CC[C@]2(C)CC[C@]3(C)C(=CC[C@@H]4[C@@]5(C)CC[C@@H](O)[C@](C)(C(=O)O)[C@@H]5CC[C@]43C)[C@H]12` [beta-Boswellic acid]: the TEAD-luciferase reporter activity reads like this: (compound concentration: 200 nM) inactive: -0.769; (compound concentration: 2 uM) inactive: -0.394; (compound concentration: 10 uM) inactive: 4.73.

For `CNc1nc(-c2cccc(NC(=O)c3ccc(C(=O)O)cc3)c2)c2cc(OC)c(OC)cc2n1`, the TEAD-luciferase reporter activity by setting is: (compound concentration: 200 nM) inactive: -0.654; (compound concentration: 2 uM) inactive: -0.615; (compound concentration: 10 uM) inactive: 2.91.

Turning to `O=C(CC(CSc1ccccc1)C(=O)O)c1ccc(-c2ccc(Cl)cc2)cc1` (stereo unspecified), the TEAD-luciferase reporter activity by setting is: (compound concentration: 200 nM) inactive: -1.1; (compound concentration: 2 uM) inactive: -1.21; (compound concentration: 10 uM) active: 7.63.

Consider `Cc1[nH]cnc1-c1ccc(Cl)cc1` [lofemizole], for which the TEAD-luciferase reporter activity is, setting by setting: (compound concentration: 200 nM) inactive: -0.405; (compound concentration: 2 uM) inactive: -1.31; (compound concentration: 10 uM) inactive: -0.504.

For the molecule `Cc1cccc(N2CCN(CCCOc3ccc4ccc(=O)[nH]c4c3)CC2)c1C`, the TEAD-luciferase reporter activity is inactive: -0.863 (compound concentration: 200 nM), inactive: -0.734 (compound concentration: 2 uM) and inactive: -1.29 (compound concentration: 10 uM).

`Cc1c(N)nc([C@H](CC(N)=O)NC[C@H](N)C(N)=O)nc1C(=O)N[C@H](C(=O)N[C@H](C)[C@@H](O)[C@H](C)C(=O)N[C@H](C(=O)NCCc1nc(-c2nc(C(=O)NCCCNCCCCN)cs2)cs1)[C@@H](C)O)[C@@H](O[C@@H]1O[C@@H](CO)[C@@H](O)[C@H](O)[C@@H]1O[C@@H]1O[C@H](CO)[C@@H](O)[C@H](OC(N)=O)[C@@H]1O)c1cnc[nH]1` [Zhengguangmycin A5]: the TEAD-luciferase reporter activity reads like this: (compound concentration: 200 nM) inactive: -1.44; (compound concentration: 2 uM) inactive: -0.649; (compound concentration: 10 uM) inactive: -1.18.

Take `COc1ccc(C(=O)NCc2cccnc2)cc1C(=O)NCc1cccnc1` [picotamide]: the TEAD-luciferase reporter activity (compound concentration: 200 nM) was inactive: -0.784, the TEAD-luciferase reporter activity (compound concentration: 2 uM) was inactive: -1.86 and the TEAD-luciferase reporter activity (compound concentration: 10 uM) is inactive: -2.04.

With `CCN(CC)CC(O)COc1ccccc1C1CC2CCC1C2` (stereo unspecified), the TEAD-luciferase reporter activity (compound concentration: 200 nM) was inactive: 0.6, the TEAD-luciferase reporter activity (compound concentration: 2 uM) was inactive: -1.31 and the TEAD-luciferase reporter activity (compound concentration: 10 uM) was inactive: 1.48.

`O=C(C1CCCC1)N1CCC(n2c(=O)[nH]c3ccccc32)CC1`: the TEAD-luciferase reporter activity runs as follows: (compound concentration: 200 nM) inactive: -1.58; (compound concentration: 10 uM) inactive: 1.59.

With `CCN(CC)CCOc1ccccc1C(=O)CCc1ccccc1` [etafe   , Guidotti], where the note is “compound concentration: 2 uM”, the TEAD-luciferase reporter activity is inactive: -1.13.

In the case of `CCN(CC)CCOc1ccccc1C(=O)CCc1ccccc1`, the TEAD-luciferase reporter activity is, setting by setting: (compound concentration: 200 nM) inactive: 0.017; (compound concentration: 10 uM) inactive: -1.62.

Regarding `COc1cc2nc(N3CCNCC3)nc(N)c2cc1OC`, the TEAD-luciferase reporter activity reads like this: (compound concentration: 200 nM) inactive: -0.184; (compound concentration: 2 uM) inactive: 2.6; (compound concentration: 10 uM) inactive: -0.239.

Consider `Cc1ccc2c(=O)c3cccc(CC(=O)O)c3oc2c1C`, for which the TEAD-luciferase reporter activity runs as follows: (compound concentration: 200 nM) inactive: -1.35; (compound concentration: 10 uM) inactive: 0.346.

As for `Cc1ccc2c(=O)c3cccc(CC(=O)O)c3oc2c1C` [Vadimezan], under “compound concentration: 2 uM”, the TEAD-luciferase reporter activity was inactive: -0.643.

`CCO/N=C(\C)c1ccc2c(c1)ncn2-c1cccc(-c2cccnc2)c1`: the TEAD-luciferase reporter activity by setting is: (compound concentration: 200 nM) inactive: -1.57; (compound concentration: 2 uM) inactive: -0.851; (compound concentration: 10 uM) inactive: 0.505.

On to `Cc1ccc2c(-c3ccc(F)cc3)nc(=O)n(C(C)C)c2c1`, for which the TEAD-luciferase reporter activity was inactive: -0.0568 (compound concentration: 200 nM), inactive: -1.58 (compound concentration: 2 uM) and inactive: 0.314 (compound concentration: 10 uM).

Take `O=C(O)c1cc(/N=N/c2ccc(O)c(C(=O)O)c2)ccc1O` [olsalazine]: the TEAD-luciferase reporter activity (compound concentration: 2 uM) is inactive: -0.94.

For the molecule `O=C(O)c1cc(/N=N/c2ccc(O)c(C(=O)O)c2)ccc1O` [Olsalazine disodium], the TEAD-luciferase reporter activity (compound concentration: 200 nM) is inactive: -1.17 and the TEAD-luciferase reporter activity (compound concentration: 10 uM) was inactive: 0.227.

On to `CC(CCN1CCN(c2ccc(F)cc2)CC1)NC(=O)c1cccnc1` (stereo unspecified), for which the TEAD-luciferase reporter activity (compound concentration: 200 nM) was inactive: -0.188, the TEAD-luciferase reporter activity (compound concentration: 2 uM) was inactive: -2.07 and the TEAD-luciferase reporter activity (compound concentration: 10 uM) is inactive: 0.219.
